{"sequences": {"note": "Sequences of proteins named here, by UniProt entry; tags and fusion partners are left off.", "UniProt P35462, whole entry, looked up": "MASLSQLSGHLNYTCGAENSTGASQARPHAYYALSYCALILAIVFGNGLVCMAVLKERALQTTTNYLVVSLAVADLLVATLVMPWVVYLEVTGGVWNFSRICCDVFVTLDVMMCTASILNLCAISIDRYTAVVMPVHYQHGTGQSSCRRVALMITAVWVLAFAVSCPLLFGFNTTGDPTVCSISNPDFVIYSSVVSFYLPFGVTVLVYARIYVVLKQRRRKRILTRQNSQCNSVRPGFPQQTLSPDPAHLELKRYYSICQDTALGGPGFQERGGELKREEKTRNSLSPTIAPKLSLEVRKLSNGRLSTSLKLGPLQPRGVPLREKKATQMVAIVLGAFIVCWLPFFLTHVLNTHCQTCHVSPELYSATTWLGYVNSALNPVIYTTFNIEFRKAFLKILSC"}, "source": "PubChem BioAssay AID652054", "about": "(National Center for Advancing Translational Sciences (NCATS), 2013)", "note": "Screen size: about 360,000 compounds; about 9,100 (2.5%) were called active. This list was built around the results that the source calls inconclusive (neither active nor inactive); the mix of calls is not that of the screen. Cut-off read from the data, not from the text of the source: active = max response below about -50%; inconclusive = no clear call, values can overlap the other calls; inactive = above that."}
{"biological_target": "D(3) dopamine receptor (Homo sapiens) (UniProt P35462)", "experiment": "qHTS of D3 Dopamine Receptor Antagonist: qHTS; note: % is set by controls: 0 for no effect and ±100 for the full control effect", "conditions": "D3R cells, DiscoveRx beta-arrestin luminescence, antagonist mode; active compounds read low", "in_short": "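Cells plated overnight at 1500 cells/well, then exposed to library compounds with dopamine controls for 90 minutes at 37 degrees C. DiscoveRx reagent added for 30–60 minutes at room temperature; luminescence read, quantitative HTS format.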"}
{"molecule": "Cc1[nH][nH]c(=O)c1C(c1ccccc1[N+](=O)[O-])C(C#N)C#N", "note": "(stereo not given)", "max response, negative = inhibition": "inactive: -17.8%"}
{"molecule": "COC(=O)c1c(-c2cccc3ccccc23)csc1NC(=O)Cc1ccc(OC)c(OC)c1", "max response, negative = inhibition": "inactive: 31.3%"}
{"molecule": "O=C(CSc1nnc(-c2ccco2)n1Cc1ccccc1)c1ccccc1", "max response, negative = inhibition": "inactive: 1.2%"}
{"molecule": "CCC(CO)NCc1ccc(Br)cc1", "note": "(stereo not given)", "max response, negative = inhibition": "inconclusive: -42.2%"}
{"molecule": "O=C(CNC1CCCCC1)N1CCc2ccccc2C1", "max response, negative = inhibition": "inconclusive: -36.8%"}
{"molecule": "COC(=O)c1ccc(NC(=S)NCCc2cccc(C)c2)cc1", "max response, negative = inhibition": "inactive: -4.07%"}
{"molecule": "O=C(CC(C(=O)N1CCc2ccccc21)n1ccnc1)NCC1CCCO1", "note": "(stereo not given)", "max response, negative = inhibition": "inconclusive: -32.3%"}
{"molecule": "COc1ccc(Nc2nnc(Cc3ccncc3)c3ccccc23)c(OC)c1", "max response, negative = inhibition": "inactive: -0.982%"}
{"molecule": "Cc1ccc(-c2nnn(CC(=O)N(CC(=O)NCC3CCCO3)c3ccc(F)c(Cl)c3)n2)o1", "note": "(stereo not given)", "max response, negative = inhibition": "inconclusive: -43.8%"}
{"molecule": "CC(C)Nc1ccc(Nc2ccnc3cc4ccccc4cc23)cc1", "max response, negative = inhibition": "active: -79.5%"}
{"molecule": "C=CC(=O)N1C/C(=C/c2ccc(Cl)cc2)C(=O)/C(=C\\c2ccc(Cl)cc2)C1", "max response, negative = inhibition": "inconclusive: -41.4%"}
{"molecule": "Cc1cccc(C)c1C(=NCCCN(C)C)c1ccccc1", "max response, negative = inhibition": "active: -78.3%"}
{"molecule": "Cc1c(NS(=O)(=O)c2cc(NC(=O)CCN3CCCC(C)C3)ccc2Cl)c(=O)n(-c2ccccc2)n1C", "note": "(stereo not given)", "max response, negative = inhibition": "inconclusive: -45%"}
{"molecule": "Brc1cccc(OCCCN2CCCCCC2)c1", "max response, negative = inhibition": "active: -73.6%"}
{"molecule": "O=C(COc1cccc(C(F)(F)F)c1)N1CCN(c2ccccc2O)CC1", "max response, negative = inhibition": "inactive: 12.7%"}
{"molecule": "CC(=O)Nc1ccc(-n2c(=O)c3ccccc3c3ccccc3c2=O)cc1", "max response, negative = inhibition": "active: -88.2%"}
{"molecule": "CCOC(=O)c1oc2nc3c(cc2c1N)CCCC3", "max response, negative = inhibition": "inconclusive: -35.5%"}
{"molecule": "COCC(=O)N(Cc1cc2ccc(C)cc2[nH]c1=O)c1ccc(OC)cc1", "max response, negative = inhibition": "inconclusive: -48.2%"}
{"molecule": "Cc1ccc(Cc2c(-c3ccc(Cl)cc3)nc3cc(C)ccn23)cc1", "max response, negative = inhibition": "inconclusive: -37.9%"}
{"molecule": "COc1cccc(-c2nn(C)c3sc(C(=O)NCc4ccc(C)o4)cc23)c1", "max response, negative = inhibition": "inconclusive: -30.8%"}
{"molecule": "CCCCn1c(NCc2cc(C)ccc2O)nc2ccccc21", "max response, negative = inhibition": "inconclusive: -30.2%"}
{"molecule": "CCc1cc2c(=O)n(C(C)C(=O)OC3CCCCC3)cnc2s1", "note": "(stereo not given)", "max response, negative = inhibition": "inconclusive: -43.8%"}
{"molecule": "CCCCCCCCSC1=CC(=O)C(OC)=C(OC)C1=O", "max response, negative = inhibition": "active: -106%"}
{"molecule": "Cc1c(C(=O)N2CCN(C/C=C/c3ccccc3)CC2)oc2c(F)cccc12", "max response, negative = inhibition": "inactive: -4.72%"}
{"molecule": "COc1ccccc1CCNCc1ccc(OC)c(OCc2ccccc2)c1", "max response, negative = inhibition": "inconclusive: -43.4%"}
